Reference: PubChem BioAssay AID1259254 (NCATS, 2017)
Shown is a random part of about 59,000 reagents. About 1,550 of them (2.6%) were called active. 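G2 share is only a proxy for re-replication; each gene was hit by three separate siRNAs, and active genes were retested.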 Reagents against one gene are numbered here. Further read-outs or replicates are left out here. The record does not give: the amount of reagent.

Screen: 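Genome-wide screen for genes that prevent DNA re-replication in cancer cells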 (primary screen)
System: human HCT116 colorectal cancer cells
Knock-down reagent: single siRNA against human genes
Time to read-out: 3 days
Measured: 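Imaged Hoechst DNA stain sorts each cell into a cycle phase by DNA amount; per plate, G2 fraction set to 0% for non-targeting and 100% for GMNN siRNA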
Scale: G2 robust z-score: higher = more G2 cells, more excess DNA replication
Rule for the call: 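An siRNA counts as active if its G2 robust z-score lies at least 5 MADs above the screen median; here such calls match roughly 38% of GMNN control or more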

With SIDT1 #1, what does the deposit list?
G2 robust z-score: 0.368; Outcome: inactive

With SIDT1 #2, how do the results read?
G2 robust z-score: -0.793; Outcome: inactive

For SIDT1 #3, what was measured?
G2 robust z-score: -0.123; Outcome: inactive

What is on record for USP28 #1?
G2 robust z-score: 0.246; Outcome: inactive

For USP28 #2, how do the results read?
G2 robust z-score: -1.13; Outcome: inactive

For USP28 #3, what was measured?
G2 robust z-score: -0.185; Outcome: inactive

For SLC41A3 #1, what does the deposit list?
G2 robust z-score: -1.33; Outcome: inactive

What is on record for SLC41A3 #2?
G2 robust z-score: -0.508; Outcome: inactive

How did the screen score SLC41A3 #3?
G2 robust z-score: 5.18; Outcome: active

How did the screen score C16orf90 #1?
G2 robust z-score: 0.614; Outcome: inactive

How did the screen score C16orf90 #2?
G2 robust z-score: -1.28; Outcome: inactive

For C16orf90 #3, how do the results read?
G2 robust z-score: -0.742; Outcome: inactive

With TRO #1, how do the results read?
G2 robust z-score: -0.183; Outcome: inactive

With TRO #2, what was measured?
G2 robust z-score: 0.753; Outcome: inactive

What is on record for TRO #3?
G2 robust z-score: -0.727; Outcome: inactive

What is on record for GRK5 #1?
G2 robust z-score: -1.11; Outcome: inactive

With GRK5 #2, what was measured?
G2 robust z-score: -0.431; Outcome: inactive

Which result is listed for GRK5 #3?
G2 robust z-score: -0.408; Outcome: inactive

For TANK #1, what was measured?
G2 robust z-score: 0.947; Outcome: inactive

Which result is listed for TANK #2?
G2 robust z-score: 0.438; Outcome: inactive

How did the screen score TANK #3?
G2 robust z-score: 1.12; Outcome: inactive

Which result is listed for CLCN1 #1?
G2 robust z-score: 0.913; Outcome: inactive

With CLCN1 #2, how do the results read?
G2 robust z-score: -0.728; Outcome: inactive

How did the screen score CLCN1 #3?
G2 robust z-score: -1.14; Outcome: inactive
